Experiment [1] addresses Flag-tagged CNAβ2. The experiment is described as follows: co-IP; immunoprecipitation with GAL4 DBD-tagged CABIN1 peptides and Flag-tagged CNA (Supplementary Fig. 1d, e); cells lysed in IP150 buffer, Anti-FLAG M2 Affinity Gel.
Experiment [2] has as its target His-tagged CNAβ2. Kind of experiment: pull-down; in vitro His-pulldown: purified His-tagged CNAβ2 mixed with purified GST-tagged peptides in 0.5 ml IP150 buffer with 0.5 mM EDTA, captured on Ni-NTA agarose, western blot; both purified.
The target in experiment [3] is Flag-tagged CNAβ2. Kind of experiment: co-IP; transfected HEK293T cells lysed in IP150 buffer; Flag- and HA-tagged proteins precipitated with Anti-FLAG M2 Affinity Gel or Anti-HA Agarose; western blot. (In general: Immunoblotting shows a protein as a band on a membrane.)

No constants are given. Whether binding was seen depends on the method and setting. Binding can be weak; no strength is given. Where a sequence is shown, tags or fusion partners need not be part of it. For some of these results: Binding seen in cells or lysates may run through a third protein.

B1: GAL4 DBD-tagged CABIN1-L-1-3 (peptide)
chain: EITVTPPTP
For the molecule B1, the binding result in experiment [1] is given as “no binding”.

B2: GAL4 DBD-tagged CABIN1-L-2 (peptide)
chain: FPPEITVTPPT
As for B2, in experiment [1], the binding entry is reported as “no binding”.

B3: GAL4 DBD-tagged CABIN1-L-1-1 (peptide)
chain: PPEITVTPPTP
On to B3, for which the binding result in experiment [1] is “binds”.

B4: GST-tagged CABIN1-L-1-2, purified (peptide)
chain: PEITVTPPTP
Regarding B4, the binding entry in experiment [2] is given as “binds”.

B5: GAL4 DBD-tagged CABIN1-L-1-2 (peptide)
chain: PEITVTPPTP
For B5, in experiment [1], the binding entry is “binds”.

B6: GST-tagged CABIN1-L-1-2 expressed in HEK293T cells (peptide)
chain: PEITVTPPTP
On to B6, for which the binding result in experiment [3] was “binds”.

B7: GAL4 DBD-tagged CABIN1-L-1 (peptide)
chain: FPPEITVTPPTP
As for B7, the binding entry in experiment [1] is “binds”.

The values are drawn from PMC9166766.
